Amino acid sequences for entries named in this document (tags omitted). A change or cut given only in a name is not applied to a line headed by its entry.
UniProt Q6GTX8: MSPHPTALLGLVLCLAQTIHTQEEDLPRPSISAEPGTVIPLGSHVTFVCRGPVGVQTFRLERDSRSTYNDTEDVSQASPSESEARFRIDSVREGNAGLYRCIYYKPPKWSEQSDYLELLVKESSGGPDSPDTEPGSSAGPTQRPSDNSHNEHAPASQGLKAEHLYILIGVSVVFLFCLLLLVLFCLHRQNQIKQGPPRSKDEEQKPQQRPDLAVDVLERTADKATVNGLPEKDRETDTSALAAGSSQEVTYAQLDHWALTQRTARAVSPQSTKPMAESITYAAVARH

According to patent US20150174203A1:

Tests used:
[1] = target: LILRB4 (human); assay: flow cytometry on transfected 293T cells
[2] = target: human LAIR1 (human) (UniProt Q6GTX8); assay: flow cytometry on transfected 293T cells
[3] = target: human LAIR1 (human) (UniProt Q6GTX8); assay: flow cytometry on human cord blood cells
[4] = target: human LAIR1 (human) (UniProt Q6GTX8); assay: flow cytometry on LAIR1-overexpressing 293T cells
[5] = target: human LAIR1 (human) (UniProt Q6GTX8); assay: flow cytometry on LAIR1-transfected 293T cells, anti-FLAG-APC and anti-LAIR1-PE

| Binder | binding [1] | binding [2] | binding [3] | binding [4] | binding [5] |
| --- | --- | --- | --- | --- | --- |
| human Angptl-1 with FLAG tag at the C-terminus (ligand, not shown: small tags and cut ends) GQFKIKKINQRRYPRATDGKEEAKKCAYTFLVPEQRITGPICVNTKGQDASTIKDMITRMDLENLKDVLSRQKREIDVLQLVVDVDGNIVNEVKLLRKESRNMNSRVTQLYMQLLHEIIRKRDNSLELSQLENKILNVTTEMLKMATRYRELEVKYASLTDLVNNQSVMITLLEEQCLRIFSRQDTHVSPPLVQVVPQHIPNSQQYTPGLLGGNEIQRDPGYPRDLMPPPDLATSPTKSPFKIPPVTFINEGPFKDCQQAKEAGHSVSGIYMIKPENSNGPMQLWCENSLDPGGWTVIQKRTDGSVNFFRNWENYKKGFGNIDGEYWLGLENIYMLSNQDNYKLLIELEDWSDKKVYAEYSSFRLEPESEFYRLRLGTYQGNAGDSMMWHNGKQFTTLDRDKDMYAGNCAHFHKGGWWYNACAHSNLNGVWYRGGHYRSKHQDGIFWAEYRGGSYSLRAVQMMIKPID | no binding | binds | binds | binds | binds |
| human Angptl-7 with FLAG tag at the C-terminus (ligand, not shown: small tags and cut ends) QKLSKHKTPAQPQLKAANCCEEVKELKAQVANLSSLLSELNKKQERDWVSVVMQVMELESNSKRMESRLTDAESKYSEMNNQIDIMQLQAAQTVTQTSADAIYDCSSLYQKNYRISGVYKLPPDDFLGSPELEVFCDMETSGGGWTIIQRRKSGLVSFYRDWKQYKQGFGSIRGDFWLGNEHIHRLSRQPTRLRVEMEDWEGNLRYAEYSHFVLGNELNSYRLFLGNYTGNVGNDALQYHNNTAFSTKDKDNDNCLDKCAQLRKGGYWYNCCTDSNLNGVYYRLGEHNKHLDGITWYGWHGSTYSLKRVEMKIRPEDFKP | no binding | binds | binds | binds | binds |
| human Angptl-2 with FLAG tag at the C-terminus, mammalian-expressed (ligand, not shown: small tags and cut ends) QEDGFEGTEEGSPREFIYLNRYKRAGESQDKCTYTFIVPQQRVTGAICVNSKEPEVLLENRVHKQELELLNNELLKQKRQIETLQQLVEVDGGIVSEVKLLRKESRNMNSRVTQLYMQLLHEIIRKRDNALELSQLENRILNQTADMLQLASKYKDLEHKYQHLATLAHNQSEIIAQLEEHCQRVPSARPVPQPPPAAPPRVYQPPTYNRIINQISTNEIQSDQNLKVLPPPLPTMPTLTSLPSSTDKPSGPWRDCLQALEDGHDTSSIYLVKPENTNRLMQVWCDQRHDPGGWTVIQRRLDGSVNFFRNWETYKQGFGNIDGEYWLGLENIYWLTNQGNYKLLVTMEDWSGRKVFAEYASFRLEPESEYYKLRLGRYHGNAGDSFTWHNGKQFTTLDRDHDVYTGNCAHYQKGGWWYNACAHSNLNGVWYRGGHYRSRYQDGVYWAEFRGGSYSLKKVVMMIRPNPNTFH | no binding |  |  |  |  |
| human Angptl-3 with FLAG tag at the C-terminus (ligand, not shown: small tags and cut ends) DQDNSSFDSLSPEPKSRFAMLDDVKILANGLLQLGHGLKDFVHKTKGQINDIFQKLNIFDQSFYDLSLQTSEIKEEEKELRRTTYKLQVKNEEVKNMSLELNSKLESLLEEKILLQQKVKYLEEQLTNLIQNQPETPEHPEVTSLKTFVEKQDNSIKDLLQTVEDQYKQLNQQHSQIKEIENQLRRTSIQEPTEISLSSKPRAPRTTPFLQLNEIRNVKHDGIPAECTTIYNRGEHTSGMYAIRPSNSQVFHVYCDVISGSPWTLIQHRIDGSQNFNETWENYKYGFGRLDGEFWLGLEKIYSIVKQSNYVLRIELEDWKDNKHYIEYSFYLGNHETNYTLHLVAITGNVPNAIPENKDLVFSTWDHKAKGHFNCPEGYSGGWWWHDECGENNLNGKYNKPRAKSKPERRRGLSWKSQNGRLYSIKSTKMLIHPTDSESFE | no binding |  |  |  |  |
| human Angptl-4 with FLAG tag at the C-terminus (ligand, not shown: small tags and cut ends) GPVQSKSPRFASWDEMNVLAHGLLQLGQGLREHAERTRSQLSALERRLSACGSACQGTEGSTDLPLAPESRVDPEVLHSLQTQLKAQNSRIQQLFHKVAQQQRHLEKQHLRIQHLQSQFGLLDHKHLDHEVAKPARRKRLPEMAQPVDPAHNVSRLHRLPRDCQELFQVGERQSGLFEIQPQGSPPFLVNCKMTSDGGWTVIQRRHDGSVDFNRPWEAYKAGFGDPHGEFWLGLEKVHSITGDRNSRLAVQLRDWDGNAELLQFSVHLGGEDTAYSLQLTAPVAGQLGATTVPPSGLSVPFSTWDQDHDLRRDKNCAKSLSGGWWFGTCSHSNLNGQYFRSIPQQRQKLKKGIFWKTWRGRYYPLQATTMLIQPMAAEAAS | no binding |  |  |  |  |
| human Angptl-6 with FLAG tag at the C-terminus (ligand, not shown: small tags and cut ends) RAGAPRCTYTFVLPPQKFTGAVCWSGPASTRATPEAANASELAALRMRVGRHEELLRELQRLAAADGAVAGEVRALRKESRGLSARLGQLRAQLQHEAGPGAGPGADLGAEPAAALALLGERVLNASAEAQRAAARFHQLDVKFRELAQLVTQQSSLIARLERLCPGGAGGQQQVLPPPPLVPVVPVRLVGSTSDTSRMLDPAPEPQRDQTQRQQEPMASPMPAGHPAVPTKPVGPWQDCAEARQAGHEQSGVYELRVGRHVVSVWCEQQLEGGGWTVIQRRQDGSVNFFTTWQHYKAGFGRPDGEYWLGLEPVYQLTSRGDHELLVLLEDWGGRGARAHYDGFSLEPESDHYRLRLGQYHGDAGDSLSWHNDKPFSTVDRDRDSYSGNCALYQRGGWWYHACAHSNLNGVWHHGGHYRSRYQDGVYWAEFRGGAYSLRKAAMLIRPLKL | no binding |  |  |  |  |

Results are given in words; binding and its absence hold for the method and conditions named. For some assays here: Binding can be weak; no strength is given. Tags and fused reporters may be left off the sequences shown.
